The values below come from article PMC6761483.

No constants are given. Whether binding was seen depends on the method and setting. A result given as binding can be weak or reduced; the word gives no strength.

This experiment concerns the target T1, KELCH-repeat region of AtFKF1 (amino acids 284 to 619) (Arabidopsis thaliana) (UniProt Q9C9W9).
T1 sequence: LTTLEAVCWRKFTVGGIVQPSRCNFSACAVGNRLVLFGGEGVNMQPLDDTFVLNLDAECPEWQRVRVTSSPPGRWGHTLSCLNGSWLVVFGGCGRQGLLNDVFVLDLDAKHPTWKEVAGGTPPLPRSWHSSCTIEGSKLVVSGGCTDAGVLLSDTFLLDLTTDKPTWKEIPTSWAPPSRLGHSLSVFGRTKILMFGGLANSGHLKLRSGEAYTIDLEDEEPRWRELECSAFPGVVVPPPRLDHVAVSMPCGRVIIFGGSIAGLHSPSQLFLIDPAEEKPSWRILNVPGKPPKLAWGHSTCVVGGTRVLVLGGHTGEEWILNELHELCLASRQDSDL
In words: two-hybrid; prey in pDEST22 (AD) in yeast PJ69-4A mated with bait in pDEST32 (BD) in PJ69-4α; diploids plated on SD -Trp -Leu -His with 0, 1, 2, 10, 25, 50 and 100 mM 3-AT; colonies over 11 days at 28°C; two independent clones.

For the substance MtCDFc1 (Medicago truncatula), the binding entry is “binds”.

As to MtCDFd1_1 (Medicago truncatula), the binding result is on record as “no binding”.
